PubChem BioAssay AID1487 (National Center for Advancing Translational Sciences (NCATS), 2009)
This is one part of the list. The main result of the screen is listed elsewhere. These columns were measured beside it and carry no call. Most of these compounds were active or inconclusive in the main read-out, so they are no random draw. Words in brackets tell the shape of the fitted curve; partial curves, single points and poor fits give uncertain potencies.

Experiment: qHTS Assay for Modulators of Lamin A Splicing
Conditions: HeLa LMNA splicing GFP/RFP minigene ratio, 48 h
Method in brief: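 Read-out is the ratio of GFP to DsRed2 object intensity, acquired by 488 nm laser-scanning cytometry on HeLa lamin A-EGFP minigene reporter cells. Compound incubation 48 hrs at 37 °C in Opti-MEM with 2% FBS; DMSO 0.5% final.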

[1] = measured here: RFP viability control channel
[2] = measured here: GFP splicing reporter channel

SMILES | AC50 [1] | AC50 [2]
Cc1ccc(C(=O)N(c2ccccc2)C2CC(C)N(C(=O)c3ccco3)c3ccccc32)cc1 (centres undefined) | 7.94 µM [rising, partial curve] | –
O=C(N/C(=C/C=C/c1ccccc1)C(=O)N1CCOCC1)c1ccccc1Br | 0.0891 µM [falling, full curve] | –
Cc1ccc(NC(=S)N(CCN(C)C)C(C)c2cccnc2)cc1 (centres undefined) | 20 µM [rising, partial curve, poor fit] | 15.8 µM [rising, partial curve]
COc1ccccc1N1CCN(c2nc3ccccn3c(=O)c2C=O)CC1 | 35.5 µM [rising, single point] | –
N#Cc1c(N)c(C#N)c(-c2ccc(O)cc2)c2c1CCCC2 | 17.8 µM [rising, partial curve] | –
O=[N+]([O-])c1cc(-c2cnc3ccccc3n2)ccc1Oc1ccc(Cl)cc1 | 14.1 µM [rising, partial curve, poor fit] | –
COc1ccc(C2CC(C(F)(F)F)n3nc(C(N)=O)c(Cl)c3N2)cc1OC (centres undefined) | 11.2 µM [rising, partial curve] | –
O=C(CN1CCCCC1)Nc1cccc2c1OCO2 | 6.31 µM [falling, single point] | 5.62 µM [falling, single point]
Cc1cc(C)nc(N(C#N)Cc2cccc3ccccc23)n1 | 15.8 µM [rising, single point] | –
CC1CN(S(=O)(=O)c2cccc(C(=O)Nc3ccc4c(c3)CCC4)c2)CC(C)O1 (centres undefined) | 22.4 µM [rising, partial curve] | 0.00891 µM [rising, full curve, poor fit]
CCC/C=C(\CCC)C(NS(=O)(=O)c1ccc(C(F)(F)F)cc1)c1ccccc1 (centres undefined) | 28.2 µM [rising, partial curve] | –
O=C(Cn1ccc2ccccc2c1=O)NCCC(=O)Nc1ccc2c(c1)OCCO2 | 0.708 µM [falling, single point] | –
Fc1ccc(N=c2ssnc2Cl)c(F)c1 | 0.00501 µM [falling, full curve, poor fit] | –
COCCN=c1scc(-c2ccccc2)n1/N=C/c1c[nH]c2ccccc12 | 17.8 µM [rising, single point] | –
C=CCN1C(=O)CSc2ccc(C(=O)NCc3cccs3)cc21 | 0.0891 µM [falling, full curve] | –
C=CCn1c(=N)c(C(=O)NCCCOC)cc2c(=O)n3ccccc3nc21 | – | 15.8 µM [rising, single point]
O=c1cnc2cncnc2n1Cc1ccccc1 | 3.55 µM [falling, full curve] | 3.16 µM [falling, full curve]
Cc1cccc(C(=O)Nc2sc(C)c(-c3ccccc3)c2C#N)c1 | 17.8 µM [rising, partial curve] | 11.2 µM [rising, partial curve]
CCCc1cc(=O)[nH]c(SCC(=O)Nc2nc3ccc(OCC)cc3s2)n1 | 22.4 µM [falling, single point] | –

SMILES | AC50 [1] | AC50 [2]
Cc1ccccc1OCCCSc1nc2ccccc2[nH]1 | 35.5 µM [rising, partial curve] | 35.5 µM [rising, single point]
COc1cccc(C2(CSc3nnc(-c4cc(OC)c(OC)c(OC)c4)o3)OCCO2)c1 | 17.8 µM [rising, single point] | –
CC(=O)C(Sc1nc(NC(C)(C)C)nc(N(C)C)n1)C(C)=O | 14.1 µM [rising, partial curve, poor fit] | 1.78 µM [rising, full curve, poor fit]
CC(C)c1ccc(NC(=S)NCCc2c[nH]c3ccccc23)cc1 | 35.5 µM [rising, partial curve] | 14.1 µM [rising, single point]
CCOc1ccc(C(=O)Nc2ccc3nc(SCC(=O)N(C)c4ccccc4)sc3c2)cc1 | 0.0794 µM [falling, full curve, poor fit] | 4.47 µM [falling, full curve]
CCOC(=O)c1cc(-c2ccc(OC)cc2)n(CCC(=O)Nc2ccc(OC)cc2OC)c1C | 0.00501 µM [falling, full curve] | –
O=C(CSc1nnc(CSc2nc3ccccc3s2)o1)NC1CCCCC1 | 35.5 µM [rising, single point] | 35.5 µM [rising, single point]
CC(C)c1ccccc1OCC(=O)NCC(c1cccs1)N1CCOCC1 (centres undefined) | 17.8 µM [rising, single point] | 6.31 µM [rising, single point]
CN(C)S(=O)(=O)c1ccc(C(=O)NCCSc2ccc(Br)cc2)cc1 | 31.6 µM [rising, single point] | –
Cc1[nH]c2ccccc2c1C(=O)COC(=O)Cn1c(C)nc2ccccc21 | – | 12.6 µM [rising, partial curve]
Nc1c(C(=O)Nc2ccccc2)sc2nc(-c3ccco3)ccc12 | 12.6 µM [rising, partial curve, poor fit] | –
Fc1ccc(NC(=S)Nc2ccccc2OC(F)F)cc1Cl | 20 µM [rising, partial curve] | –
CCc1cccc(OCC(=O)Nc2ccc(S(=O)(=O)Nc3ccccn3)cc2)c1 | 31.6 µM [falling, partial curve, poor fit] | –
O=C1CN(C(=O)CSc2nnc(C3CC3)n2-c2ccccc2)c2ccccc2N1 | – | 0.316 µM [rising, full curve]
Cc1cc(/C=N/NC(=O)CC2(C)OCCO2)c(C)n1-c1ccc(Cl)c(Cl)c1 | 35.5 µM [rising, single point] | –
Fc1ccc(C2=CC(c3ccc(Br)o3)n3ncnc3N2)cc1 (centres undefined) | 0.01 µM [rising, full curve, poor fit] | 0.794 µM [rising, full curve, poor fit]
Clc1ncnc2scc(-c3ccc(Br)cc3)c12 | 35.5 µM [rising, single point] | –
COc1ccc2c(CC(=O)Nc3ccc(OC)c(NS(=O)(=O)c4ccc(F)cc4)c3)coc2c1 | 10 µM [rising, partial curve, poor fit] | –

By substructure, the entries above containing a CF3 group
SMILES | AC50 [1] | AC50 [2]
COc1ccc(C2CC(C(F)(F)F)n3nc(C(N)=O)c(Cl)c3N2)cc1OC (centres undefined) | 11.2 µM [rising, partial curve] | –
CCC/C=C(\CCC)C(NS(=O)(=O)c1ccc(C(F)(F)F)cc1)c1ccccc1 (centres undefined) | 28.2 µM [rising, partial curve] | –
